{"source": "PubChem BioAssay AID504535", "about": "(Broad Institute, 2011)", "note": "The inconclusive results got no clear call from the source; some entries with a clear call stand among them for comparison. The source made the active and inactive calls.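 Rule for the calls: active = luminescence drop with fitted half-effect dose at most ten times the top tested dose, in every repeat; inconclusive = repeats disagree, flat moderate inhibition, or unreliable curve fit; inactive = every repeat flat, too weak, or signal rising.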", "data": [{"assay": "inhibitors of HMLE_shECad breast CSC-like cells, dose response, cell-based, CellTiter-Glo luminescence, primary HTS retest, dry powder, set 5 (AID 504535)", "conditions": "HMLE_shECad viability, 72 h; at 19.5 µM (top of the series) unless noted", "procedure,_shortened": "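Assay system – HMLE_shECad model of breast cancer stem cells · Timing – about 72 h compound exposure at 37 °C, 5% CO2 · Technique – CellTiter-Glo luminescence · Read-out – cell viability from luminescent ATP signal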", "values": [{"smiles": "Cc1csc(NC(=O)c2ccc(CS(=O)(=O)c3ccccc3)o2)n1", "activity change, negative = inhibition": "inconclusive: -9.56%"}, {"smiles": "Cc1coc(NC(=O)/C=C/c2ccc(C(C)C)cc2)n1", "activity change, negative = inhibition": "inconclusive: -15.2%"}, {"smiles": "Cc1csc(NC(=O)c2ccc(COc3ccc(S(C)(=O)=O)cc3)o2)n1", "activity change, negative = inhibition": "inconclusive: -18.1%"}, {"smiles": "O=C(/C=C/c1ccc(-c2ccccc2)cc1)NC1=NCCS1", "activity change, negative = inhibition": "inconclusive: -57.9%"}, {"smiles": "COCc1ccc(C(=O)Nc2nc(C)cs2)o1", "activity change, negative = inhibition": "inactive: 1.05%"}, {"smiles": "O=C(Nc1nncs1)c1ccc(COc2ccccc2)o1", "activity change, negative = inhibition": "inactive: -7.89%"}, {"smiles": "CC(C)c1ccc(/C=C/C(=O)Nc2nc(C(F)(F)F)cs2)cc1", "activity change, negative = inhibition": "inconclusive: -36.2%"}, {"smiles": "Cc1ccc2cc(C(=O)NC3=NCCS3)n(C)c2c1", "activity change, negative = inhibition": "inactive: -12.6% [at 30 µM]"}, {"smiles": "CC(C)c1ccc(/C=C/C(=O)Nc2nc3ccccc3s2)cc1", "activity change, negative = inhibition": "inconclusive: -11%"}, {"smiles": "Cc1csc(NC(=O)c2ccc(COC(C)(C)C)o2)n1", "activity change, negative = inhibition": "inconclusive: -14.4%"}, {"smiles": "Cc1csc(NC(=O)c2ccc(COC(C)C)o2)n1", "activity change, negative = inhibition": "inconclusive: -3.13%"}]}]}
